Construct, isoform or probe ends are uncertain for at least one entry. At least one result comes from cells or an extract, where the contact may be indirect.

By UniProt entry, the sequences of proteins in these tests, tags left out.
UniProt Q921F2, whole entry: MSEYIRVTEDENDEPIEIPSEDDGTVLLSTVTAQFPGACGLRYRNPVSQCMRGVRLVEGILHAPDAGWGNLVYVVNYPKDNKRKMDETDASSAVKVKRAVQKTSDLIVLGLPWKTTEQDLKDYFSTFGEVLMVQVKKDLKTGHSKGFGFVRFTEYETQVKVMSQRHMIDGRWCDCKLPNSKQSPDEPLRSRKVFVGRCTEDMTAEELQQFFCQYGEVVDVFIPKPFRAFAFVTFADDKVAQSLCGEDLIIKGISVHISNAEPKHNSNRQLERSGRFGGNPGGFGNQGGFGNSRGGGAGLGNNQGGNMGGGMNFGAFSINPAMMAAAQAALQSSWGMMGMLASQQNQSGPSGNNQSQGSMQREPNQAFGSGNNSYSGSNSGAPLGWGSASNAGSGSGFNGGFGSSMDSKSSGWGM

We go through 1 sequence from US9441223.

For data set [1], the target named is TDP-43 (Rattus norvegicus) (UniProt A0A8I6GLU8). Description: binding assay. Conditions: reanalysis of public RIP-seq; motif equivalently enriched in RefGene and repeat targets; protein in cells; only the motif is given.
Another data set addresses TDP-43 (Mus musculus) (UniProt Q921F2). Description: binding assay. Conditions: reanalysis of public CLIP-seq; motif enriched in RefGene and repeat targets; protein in cells; protein details: endogenous, CLIP; only the motif is given.

UGUGU [UGUGU pentamer motif]: the binding result (in data set [1]; in the data set with TDP-43 (Mus musculus)) was “binds” each time.
